Laboratory results reported in publication PMC7194030 (Science translational medicine, 2019).
Counter-ions that a name gives are not always drawn.

Tested on: Mx1-Cre Srsf2P95H/WT MDS mice
Type: in vivo

Cc1ccccc1C(OCCN(C)C)c1ccccc1 (centres unmarked) [orphenadrine citrate]
Survival of MDS disease mice (OR 100 mg/kg daily, to a level similar to control wild-type mice): extended the survival | Weight loss, liver or kidney function (mouse, in vivo): no substantial effects
